Not every detail of the peptide structures is certain; ends, links or a residue may be inferred. Where no end group is shown, it is not given here.
Legend:
[1] = tested on: ADAMTS-5; test: ADAMTS-5 gene expression, real time PCR, NP cells; assay type: cell-based, bovine; conditions: 1 μg/mL, day 7, vs controls
[2] = tested on: ADAMTS-4; test: ADAMTS-4 gene expression, real time PCR, NP cells; assay type: cell-based, bovine; conditions: 1 μg/mL, after 14 days
[3] = tested on: Smad2; test: Smad2 activation, immunoblotting, NP cells; assay type: cell-based, bovine; conditions: 1 μg/ml
[4] = tested on: aggrecan (AGG); test: Aggrecan (AGG) gene expression, real time PCR, AF cells; assay type: cell-based, bovine; conditions: 1 μg/mL, 1 week, relative to CTL
[5] = tested on: Smad2; test: Smad2 activation, immunoblotting, AF cells; assay type: cell-based, bovine; conditions: 1 μg/ml, up to three hours
[6] = tested on: ADAMTS-5; test: ADAMTS-5 gene expression, real time PCR, AF cells; assay type: cell-based, bovine; conditions: 1 μg/mL, day 7, vs controls
[7] = tested on: ADAMTS-4; test: ADAMTS-4 gene expression, real time PCR, AF cells; assay type: cell-based, bovine; conditions: 1 μg/mL, compared to the controls
[8] = tested on: Smad1/5; test: Smad1/5 activation, immunoblotting, AF cells; assay type: cell-based, bovine; conditions: 1 μg/ml
[9] = tested on: nucleus pulposus (NP) bovine cells; test: GAG release into culture media (DMMB), alginate beads; assay type: cell-based; conditions: 1 μg/ml, days 3-18, vs control
[10] = tested on: aggrecan (AGG); test: Aggrecan (AGG) gene expression, real time PCR, NP cells; assay type: cell-based, bovine; conditions: 1 μg/mL, 1 week, relative to CTL
[11] = tested on: annulus fibrosus (AF) bovine cells; test: GAG release into culture media (DMMB), alginate beads; assay type: cell-based; conditions: 1 μg/ml, days 3-18, vs control

DHHSDNYTVDHDRVIH [BLN, DHHSDNYTVDHDRVIH]
ADAMTS-5 expression [1]: upregulated | ADAMTS-4 expression [2]: no significant effect on ADAMTS-4 expression | Smad2 activation [3]: no Smad2 activation was detected | AGG gene expression [4]: no significant effect was observed | Smad2 activation [5]: slightly increased Smad2 activation | ADAMTS-5 expression [6]: down-regulated | mRNA ADAMTS-4 expression [7]: increase in mRNA ADAMTS-4 expression was observed with both BLN and HLN incubations, although the differences were not significant | time of maximum Smad1/5 activation [8]: 30 min | time to Smad1/5 activation [8]: ≤ 10 min | Smad1/5 levels after 6 hours ([8]; 6 hours): decreased to below the control levels | GAG release into the culture medium [9]: no statistical significance was observed | AGG gene expression [10]: increase in AGG gene expression | GAG release into the culture medium [11]: significantly higher than the control starting from day 9
